From patent publication US5409944A, “Alkanesulfonamido-1-indanone derivatives as inhibitors of cyclooxygenase” (Merck Frosst Canada, Inc., priority 1993, dated 1995)
Some entries share one result that the patent states for a list of compounds.

Tested on: cyclooxygenase-2 (COX-2)
Assay: PGE2 synthesis in the presence of arachidonic acid, cyclooxygenase and compound
Assay type: biochemical
Details: selectivity COX-2 over COX-1, PGE2 synthesis assay

Row | SMILES | times more effective in inhibiting COX-2 than COX-1
1 | CS(=O)(=O)Nc1cc2c(cc1Sc1cccs1)C(=O)CC2 [Compound 1, 5-Methanesulfonamido-6-(2,-thienylthio)-1-indanone] | more than 100 times
2 | Cc1ccnc(Sc2cc3c(cc2NS(C)(=O)=O)CCC3=O)n1 [Compound 2, 5-Methanesulfonamido-6-(2-(4-methyl-1,3-diazinylthio))-1-indanone] | more than 100 times
3 | Cc1nnc(Sc2cc3c(cc2NS(C)(=O)=O)CCC3=O)s1 [Compound 4, 5-Methanesulfonamido-6-(2-(5-methyl-1,3,4-thiadiazoylthio))-1-indanone] | more than 100 times
4 | CS(=O)(=O)Nc1cc2c(cc1Oc1ccsc1)C(=O)CC2 [Compound 5] | more than 100 times
5 | O=C1CCc2cc(NS(=O)(=O)C(F)(F)F)c(Sc3cccs3)cc21 [Compound 6] | more than 100 times
6 | Cc1nc(Sc2cc3c(cc2NS(C)(=O)=O)CCC3=O)sc1C [Compound 7] | more than 100 times
7 | Cn1ccnc1Sc1cc2c(cc1NS(C)(=O)=O)CCC2=O [Compound 8] | more than 100 times
8 | O=C1CCc2cc(NS(=O)(=O)C(F)(F)F)c(Cc3nc(Cl)cs3)cc21 [Compound 9] | more than 100 times
9 | CCS(=O)(=O)Nc1cc2c(cc1Sc1ccoc1C)C(=O)CC2 [Compound 10] | more than 100 times
10 | CSc1nnc(Sc2cc3c(cc2NS(=O)(=O)C(C)C)CCC3=O)s1 [Compound 11] | more than 100 times
11 | Cc1nc(Sc2cc3c(cc2NS(C)(=O)=O)CCC3=O)nn1C [Compound 12] | more than 100 times
12 | Cn1cc(Sc2cc3c(cc2NS(C)(=O)=O)CCC3=O)nn1 [Compound 13] | more than 100 times
13 | CS(=O)(=O)Nc1cc2c(cc1Oc1cnsc1)C(=O)CC2 [Compound 14] | more than 100 times
14 | O=C1CCc2cc(NS(=O)(=O)C(F)(F)F)c(Oc3nccs3)cc21 [Compound 15] | more than 100 times
15 | CS(=O)(=O)Nc1cc2c(cc1Cc1ncco1)C(=O)CC2 [Compound 16] | more than 100 times
16 | CS(=O)(=O)Nc1cc2c(cc1Oc1cncs1)C(=O)CC2 [Compound 17] | more than 100 times
17 | Cc1cc(Sc2cc3c(cc2NS(C)(=O)=O)CCC3=O)sn1 [Compound 18] | more than 100 times
18 | CS(=O)(=O)Nc1cc2c(cc1Oc1ccsn1)C(=O)CC2 [Compound 19] | more than 100 times
19 | Cc1nscc1Sc1cc2c(cc1NS(C)(=O)=O)CCC2=O [Compound 20] | more than 100 times
20 | CS(=O)(=O)Nc1cc2c(cc1Oc1csnn1)C(=O)CC2 [Compound 21] | more than 100 times
21 | CS(=O)(=O)Nc1cc2c(cc1Sc1cnsn1)C(=O)CC2 [Compound 22] | more than 100 times
22 | O=C1CCc2cc(NS(=O)(=O)C(F)(F)F)c(Sc3ccon3)cc21 [Compound 23] | more than 100 times
23 | CCS(=O)(=O)Nc1cc2c(cc1Sc1cnns1)C(=O)CC2 [Compound 24] | more than 100 times
24 | CS(=O)(=O)Nc1cc2c(cc1Sc1nnco1)C(=O)CC2 [Compound 25] | more than 100 times
25 | Cc1nc(Sc2cc3c(cc2NS(=O)(=O)C(F)(F)F)CCC3=O)ns1 [Compound 26] | more than 100 times
